Results deposited as PubChem BioAssay AID1259314 (Drosophila RNAi Screening Center, 2017).

Aim: 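Genes whose knock-down alters cell survival under toxic manganese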 (primary screen)
System: Drosophila S2R+ cells
Reagent: long dsRNA against Drosophila genes
Timing: 5 days (4 days knock-down, then 1 day metal exposure)
Challenge: manganese chloride added to 15 mM for 24 hours
Detection: 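Luciferase ATP signal used as a proxy for viable cell number, reported as one averaged z-score per dsRNA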
Direction: mean ATP z-score: higher = more ATP than the plate average, more viable cells under manganese
Rule for the call: 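a mean ATP z-score past 1.5 in either direction is called active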
Meaning of the calls: active = strong ATP change, up or down; inactive = no strong ATP change
The deposit covers about 3,100 reagents; below is an unselected part. 289 of them (9.3%) were called active. 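Active includes both higher and lower ATP than plate average; check the z-score sign for direction.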 A number with no mark means an inactive call. A plus sign joins genes that one reagent is predicted to hit. The record does not give: the amount of reagent.

Depletion of CG43155 [DRSC19777] came out at: mean ATP z-score -0.24. CG13160 [DRSC06284] gave mean ATP z-score -0.159. Silencing of CG15096 [DRSC06525] resulted in: mean ATP z-score 1.23. Depletion of CG15096 [DRSC29737] resulted in: mean ATP z-score 0.463. pcx (pecanex) [DRSC18188] gave mean ATP z-score 0.214. For pcx (pecanex) [DRSC18189], the entry reads mean ATP z-score 0.622.

After knock-down of LpR1 (Lipophorin receptor 1) [DRSC15665], the screen gave mean ATP z-score -2.43 (active). After knock-down of LpR1 (Lipophorin receptor 1) [DRSC15669], the record shows mean ATP z-score 1.44. LpR1 (Lipophorin receptor 1) [DRSC27848] showed mean ATP z-score 1.17. Depletion of CG11367 [DRSC22434] gave: mean ATP z-score -1.33. With knock-down of CG6938 [DRSC10752] the results were mean ATP z-score -0.72. Against CG6938 [DRSC28621], the values are mean ATP z-score -0.704.

Ugalt (UDP-galactose transporter) [DRSC18467] scored mean ATP z-score -0.121. With knock-down of CG9664 [DRSC00725], the record shows mean ATP z-score -0.309. Depletion of Ror [DRSC03414] gave: mean ATP z-score -0.343. Silencing of Ror [DRSC36669] gave: mean ATP z-score -0.205. For Ror [DRSC36670], the entry reads mean ATP z-score 0.0586. Yip1d1 (Yip1 domain-containing 1) [DRSC02166] gave mean ATP z-score 0.316.

Against Osi14 (Osiris 14) [DRSC12368] the deposit lists mean ATP z-score -1.48. Osi14 (Osiris 14) [DRSC26397] gave mean ATP z-score 0.944. After knock-down of CG7530 [DRSC25476] the results were mean ATP z-score 4.4 (active). Knock-down of CG7530 [DRSC39584] gave: mean ATP z-score -0.28. Depletion of sns (sticks and stones) [DRSC07687] gave: mean ATP z-score -1.4. Knock-down of sns (sticks and stones) [DRSC07691] resulted in: mean ATP z-score -0.8.

Against 5-HT2B (5-hydroxytryptamine (serotonin) receptor 2B) [DRSC16360], the entry reads mean ATP z-score -0.672. Knock-down of 5-HT2B (5-hydroxytryptamine (serotonin) receptor 2B) [DRSC16362] came out at: mean ATP z-score -1.11. For 5-HT2B (5-hydroxytryptamine (serotonin) receptor 2B) [DRSC25577], the values are mean ATP z-score 0.87. Silencing of Ir76b (Ionotropic receptor 76b) [DRSC10831] resulted in: mean ATP z-score 0.734. For Ir76b (Ionotropic receptor 76b) [DRSC39663], the entry reads mean ATP z-score -0.227. With knock-down of CG5850 [DRSC02905], the record shows mean ATP z-score -1.34.

For CG5850 [DRSC39491], the values are mean ATP z-score 0.214. For Inx2 (Innexin 2) [DRSC18783], the entry reads mean ATP z-score 0.0743. Inx2 (Innexin 2) [DRSC24455] gave mean ATP z-score 0.757. CG10505 [DRSC04075] gave mean ATP z-score 0.665. For CG10505 [DRSC39815], the values are mean ATP z-score 0.76. With knock-down of Sr-CII (Scavenger receptor class C, type II) [DRSC07557] the results were mean ATP z-score -1.16.

After knock-down of Sr-CII (Scavenger receptor class C, type II) [DRSC25606] the results were mean ATP z-score 1.87 (active). CG1208 [DRSC12190] showed mean ATP z-score -0.286. Silencing of CG1208 [DRSC39467] came out at: mean ATP z-score -0.687. Silencing of Unc-115b + p24-2 [DRSC16492] gave: mean ATP z-score -0.875. For CCKLR-17D3 (Cholecystokinin-like receptor at 17D3) [DRSC20017], the values are mean ATP z-score -0.351. Against CCKLR-17D3 (Cholecystokinin-like receptor at 17D3) [DRSC23715], the entry reads mean ATP z-score 1.52 (active).

With knock-down of Agpat2 (1-Acylglycerol-3-phosphate O-acyltransferase 2) [DRSC03532], the screen gave mean ATP z-score 1.77 (active). Silencing of Agpat2 (1-Acylglycerol-3-phosphate O-acyltransferase 2) [DRSC27901] came out at: mean ATP z-score 0.107. For CG14857 [DRSC14981], the entry reads mean ATP z-score 0.0105. With knock-down of CG14857 [DRSC39636] the results were mean ATP z-score 0.668. clumsy [DRSC03111] gave mean ATP z-score -0.634.

Laid out differently: entries from further up.
{"target gene":"CG6938","DRSC id":"DRSC28621","mean ATP z-score":-0.704}
{"target gene":"Ugalt (UDP-galactose transporter)","DRSC id":"DRSC18467","mean ATP z-score":-0.121}
{"target gene":"CG9664","DRSC id":"DRSC00725","mean ATP z-score":-0.309}
{"target gene":"Ror","DRSC id":"DRSC03414","mean ATP z-score":-0.343}
{"target gene":"Ror","DRSC id":"DRSC36669","mean ATP z-score":-0.205}
{"target gene":"Ror","DRSC id":"DRSC36670","mean ATP z-score":0.0586}
{"target gene":"Yip1d1 (Yip1 domain-containing 1)","DRSC id":"DRSC02166","mean ATP z-score":0.316}
